The chains behind the UniProt entries cited, without tags or fusion partners. Where a name states a change or a piece, a line headed by the entry shows the natural chain unless it says otherwise.
UniProt P40238: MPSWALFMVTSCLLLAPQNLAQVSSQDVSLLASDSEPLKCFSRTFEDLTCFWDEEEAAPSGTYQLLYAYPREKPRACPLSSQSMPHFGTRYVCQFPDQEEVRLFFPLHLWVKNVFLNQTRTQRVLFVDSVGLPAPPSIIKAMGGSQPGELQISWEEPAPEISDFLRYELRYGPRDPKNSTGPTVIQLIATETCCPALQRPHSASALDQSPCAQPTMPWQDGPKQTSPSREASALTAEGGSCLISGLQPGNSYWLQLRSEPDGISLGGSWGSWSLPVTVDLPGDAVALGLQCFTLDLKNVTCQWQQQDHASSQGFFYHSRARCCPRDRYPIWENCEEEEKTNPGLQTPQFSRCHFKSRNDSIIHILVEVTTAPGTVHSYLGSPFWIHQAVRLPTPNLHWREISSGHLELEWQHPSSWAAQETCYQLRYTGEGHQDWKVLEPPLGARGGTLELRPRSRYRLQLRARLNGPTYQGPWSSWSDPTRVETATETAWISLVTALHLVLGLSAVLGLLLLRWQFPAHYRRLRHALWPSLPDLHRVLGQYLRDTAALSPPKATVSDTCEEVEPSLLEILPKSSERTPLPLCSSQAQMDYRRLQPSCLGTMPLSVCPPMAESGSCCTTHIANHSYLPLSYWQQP
UniProt P52732: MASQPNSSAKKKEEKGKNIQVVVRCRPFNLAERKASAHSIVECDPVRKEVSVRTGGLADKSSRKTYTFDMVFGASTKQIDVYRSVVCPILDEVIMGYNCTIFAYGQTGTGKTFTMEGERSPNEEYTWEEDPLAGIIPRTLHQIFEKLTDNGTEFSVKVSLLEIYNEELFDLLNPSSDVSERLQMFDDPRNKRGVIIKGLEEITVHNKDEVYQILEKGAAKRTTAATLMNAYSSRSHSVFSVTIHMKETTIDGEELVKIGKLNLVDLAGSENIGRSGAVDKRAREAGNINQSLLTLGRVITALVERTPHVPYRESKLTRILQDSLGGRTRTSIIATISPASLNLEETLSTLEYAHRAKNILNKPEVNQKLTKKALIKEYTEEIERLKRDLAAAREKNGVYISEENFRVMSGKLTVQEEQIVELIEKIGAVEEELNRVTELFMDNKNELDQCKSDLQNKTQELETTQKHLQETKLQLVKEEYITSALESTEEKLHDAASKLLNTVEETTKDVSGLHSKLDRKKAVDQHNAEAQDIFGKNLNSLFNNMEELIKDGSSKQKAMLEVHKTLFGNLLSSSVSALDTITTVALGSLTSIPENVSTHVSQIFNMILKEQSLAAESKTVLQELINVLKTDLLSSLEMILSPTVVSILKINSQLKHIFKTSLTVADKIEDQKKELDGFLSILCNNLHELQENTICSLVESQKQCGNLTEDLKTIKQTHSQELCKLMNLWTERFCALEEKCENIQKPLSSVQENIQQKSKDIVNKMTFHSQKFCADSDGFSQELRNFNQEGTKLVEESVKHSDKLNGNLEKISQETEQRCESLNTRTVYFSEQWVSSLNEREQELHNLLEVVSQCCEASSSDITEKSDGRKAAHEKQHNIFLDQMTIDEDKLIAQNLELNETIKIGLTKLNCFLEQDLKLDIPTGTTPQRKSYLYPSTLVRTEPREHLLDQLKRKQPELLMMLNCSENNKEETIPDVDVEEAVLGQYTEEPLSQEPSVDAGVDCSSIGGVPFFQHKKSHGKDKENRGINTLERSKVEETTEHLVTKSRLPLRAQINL
UniProt P35580: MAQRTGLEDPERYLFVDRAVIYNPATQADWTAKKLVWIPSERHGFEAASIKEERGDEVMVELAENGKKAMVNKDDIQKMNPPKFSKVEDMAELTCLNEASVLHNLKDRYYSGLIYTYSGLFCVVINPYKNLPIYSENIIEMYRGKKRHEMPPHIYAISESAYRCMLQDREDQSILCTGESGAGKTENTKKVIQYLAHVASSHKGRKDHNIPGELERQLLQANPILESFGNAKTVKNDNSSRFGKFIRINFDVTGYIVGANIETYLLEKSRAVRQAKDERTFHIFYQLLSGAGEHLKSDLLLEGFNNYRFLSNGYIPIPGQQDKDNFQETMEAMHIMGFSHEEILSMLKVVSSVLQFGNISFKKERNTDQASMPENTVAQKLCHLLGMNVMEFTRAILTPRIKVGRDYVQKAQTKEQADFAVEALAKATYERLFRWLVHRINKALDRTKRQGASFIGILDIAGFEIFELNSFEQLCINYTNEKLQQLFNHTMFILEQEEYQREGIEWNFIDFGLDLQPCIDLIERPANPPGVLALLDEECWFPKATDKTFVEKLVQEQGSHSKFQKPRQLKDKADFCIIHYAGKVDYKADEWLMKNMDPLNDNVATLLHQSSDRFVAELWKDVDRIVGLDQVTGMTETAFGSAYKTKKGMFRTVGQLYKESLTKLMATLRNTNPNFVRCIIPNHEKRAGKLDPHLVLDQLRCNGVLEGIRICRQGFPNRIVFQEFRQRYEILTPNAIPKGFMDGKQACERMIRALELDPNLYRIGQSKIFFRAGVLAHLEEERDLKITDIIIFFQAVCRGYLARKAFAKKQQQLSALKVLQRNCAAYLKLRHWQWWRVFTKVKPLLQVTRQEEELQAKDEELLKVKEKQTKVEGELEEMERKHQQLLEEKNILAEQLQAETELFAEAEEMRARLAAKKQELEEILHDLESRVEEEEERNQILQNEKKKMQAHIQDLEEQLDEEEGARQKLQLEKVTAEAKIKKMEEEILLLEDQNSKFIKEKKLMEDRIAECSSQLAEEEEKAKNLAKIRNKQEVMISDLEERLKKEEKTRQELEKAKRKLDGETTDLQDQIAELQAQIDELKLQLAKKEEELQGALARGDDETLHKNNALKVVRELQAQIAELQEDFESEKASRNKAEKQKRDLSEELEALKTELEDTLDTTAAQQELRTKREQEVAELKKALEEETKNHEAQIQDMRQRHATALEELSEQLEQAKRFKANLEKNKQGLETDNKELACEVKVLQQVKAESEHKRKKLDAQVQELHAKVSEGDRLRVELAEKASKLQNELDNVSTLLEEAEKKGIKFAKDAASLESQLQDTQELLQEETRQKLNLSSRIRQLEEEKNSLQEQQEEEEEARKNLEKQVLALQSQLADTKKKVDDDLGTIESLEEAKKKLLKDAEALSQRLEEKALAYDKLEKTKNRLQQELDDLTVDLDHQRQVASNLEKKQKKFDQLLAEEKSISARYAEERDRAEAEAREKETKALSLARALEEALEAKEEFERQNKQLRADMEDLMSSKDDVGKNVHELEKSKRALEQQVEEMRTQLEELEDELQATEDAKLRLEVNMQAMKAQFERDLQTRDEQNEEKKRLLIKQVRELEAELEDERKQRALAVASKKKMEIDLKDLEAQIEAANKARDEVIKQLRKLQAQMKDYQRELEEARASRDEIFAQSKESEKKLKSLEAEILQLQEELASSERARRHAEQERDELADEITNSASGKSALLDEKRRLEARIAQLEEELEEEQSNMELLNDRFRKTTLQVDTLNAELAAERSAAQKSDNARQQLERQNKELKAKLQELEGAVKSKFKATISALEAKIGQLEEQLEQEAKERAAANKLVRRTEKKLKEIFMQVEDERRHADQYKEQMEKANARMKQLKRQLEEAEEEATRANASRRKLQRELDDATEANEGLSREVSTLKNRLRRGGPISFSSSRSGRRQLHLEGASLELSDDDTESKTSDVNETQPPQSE

According to article PMC12442642:

Target: Flag-tagged c-Mpl C-terminal domain (UniProt P40238)
Assay: affinity purification with mass spectrometry; Flag-tagged c-Mpl C-terminal domain expressed in HEK-293T cells, precipitated with an anti-Flag antibody; silver-stained gel, proteins identified by mass spectrometry

| binding | Substance |
| --- | --- |
| binds | Kif11 (endogenous) (from UniProt P52732 1-1056) |
| binds | Myosin-10 (endogenous) (from UniProt P35580 1-1976) |

No constants are given. Whether binding was seen depends on the method and setting. Binding seen in cells or lysates may run through a third protein. A yes stands for co-enrichment or nearness to the bait. Other partners may have been found.
